Protein sequences, listed by entry. Tags and fused reporters are not part of them. Lines headed by an entry give the natural chain unless they say otherwise; changes in a name come on top. Residues count along the entry.
UniProt P17839: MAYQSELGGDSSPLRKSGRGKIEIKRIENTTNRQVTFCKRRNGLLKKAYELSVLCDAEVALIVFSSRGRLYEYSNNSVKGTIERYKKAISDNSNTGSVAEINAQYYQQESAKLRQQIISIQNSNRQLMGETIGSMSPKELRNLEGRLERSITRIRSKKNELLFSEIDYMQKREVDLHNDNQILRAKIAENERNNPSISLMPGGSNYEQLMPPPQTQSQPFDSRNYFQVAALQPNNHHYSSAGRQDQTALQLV
UniProt O22456, 1-181, stated change not applied: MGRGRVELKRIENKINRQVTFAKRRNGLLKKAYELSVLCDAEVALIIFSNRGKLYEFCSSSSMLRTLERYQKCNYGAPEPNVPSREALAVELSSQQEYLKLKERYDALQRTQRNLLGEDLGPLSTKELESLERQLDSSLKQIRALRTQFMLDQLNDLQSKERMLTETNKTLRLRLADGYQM
UniProt P29385: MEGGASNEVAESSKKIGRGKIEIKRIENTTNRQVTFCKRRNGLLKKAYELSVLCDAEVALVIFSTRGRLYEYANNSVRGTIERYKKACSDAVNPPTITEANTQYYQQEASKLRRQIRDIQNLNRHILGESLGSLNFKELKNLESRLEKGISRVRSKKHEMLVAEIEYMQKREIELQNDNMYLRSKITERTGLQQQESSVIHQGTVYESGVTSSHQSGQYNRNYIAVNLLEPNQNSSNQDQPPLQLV
UniProt P29381: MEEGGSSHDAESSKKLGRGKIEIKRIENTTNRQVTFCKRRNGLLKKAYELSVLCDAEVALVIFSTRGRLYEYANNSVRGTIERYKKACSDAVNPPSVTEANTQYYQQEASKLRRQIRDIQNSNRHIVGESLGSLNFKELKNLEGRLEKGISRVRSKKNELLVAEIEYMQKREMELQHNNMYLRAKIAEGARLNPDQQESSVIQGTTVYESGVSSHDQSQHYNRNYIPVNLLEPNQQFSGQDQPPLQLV

According to article PMC10593234:

What was measured:
Experiment in all cases: EMSA
[1] = molecular target: AG (Arabidopsis thaliana) (UniProt P17839); details: 1.6 mM EDTA, 10.3 mM HEPES (pH not stated), 1 mM DTT, 1.3 mM spermidine HCl, 33.3 ng/uL poly dI/dC, 2.5% CHAPS, 4.3% glycerol, 0.1 ng probe in 12 uL, protein translated in vitro, label: 32P (dATP Klenow fill-in)
[2] = molecular target: SEP3 (Arabidopsis thaliana) (UniProt O22456); details: 1.6 mM EDTA, 10.3 mM HEPES (pH not stated), 1 mM DTT, 1.3 mM spermidine HCl, 33.3 ng/uL poly dI/dC, 2.5% CHAPS, 4.3% glycerol, 0.1 ng probe in 12 uL, protein translated in vitro, label: 32P (dATP Klenow fill-in)
[3] = molecular target: SEP3ΔC (Arabidopsis thaliana) (UniProt O22456); details: 1.6 mM EDTA, 10.3 mM HEPES (pH not stated), 1 mM DTT, 1.3 mM spermidine HCl, 33.3 ng/uL poly dI/dC, 2.5% CHAPS, 4.3% glycerol, 0.1 ng probe in 12 uL, protein translated in vitro, label: 32P (dATP Klenow fill-in)
[4] = molecular target: SHP2 (Arabidopsis thaliana) (UniProt P29385); details: all shifted bands eliminated; 1.6 mM EDTA, 10.3 mM HEPES (pH not stated), 1 mM DTT, 1.3 mM spermidine HCl, 33.3 ng/uL poly dI/dC, 2.5% CHAPS, 4.3% glycerol, 6 ug/uL BSA; 0.1 ng probe in 12 uL; protein translated in vitro; label: 32P (dATP Klenow fill-in)
[5] = molecular target: SHP1 (Arabidopsis thaliana) (UniProt P29381); details: all shifted bands eliminated; 1.6 mM EDTA, 10.3 mM HEPES (pH not stated), 1 mM DTT, 1.3 mM spermidine HCl, 33.3 ng/uL poly dI/dC, 2.5% CHAPS, 4.3% glycerol, 6 ug/uL BSA; 0.1 ng probe in 12 uL; protein translated in vitro; label: 32P (dATP Klenow fill-in)
[6] = near identical to AtMUTE_i1, 6 ug/uL BSA
[7] = homodimer bands reduced significantly, 6 ug/uL BSA
[8] = all shifted bands eliminated, 6 ug/uL BSA
[9] = similar to AtMUTE_i1, 6 ug/uL …

Measured: binding result

CTCGAGGATCATGCATGGTAATCTTTCTAATATCGGATAGTACTCCAAACTTACTAATCTTGGAAAAATATGTTGTGCCATCTTCTAGA (double strand) [EsMUTE_i1]
binds: [1]; [6] | [2]; [6] | [3]; [6]

CTCGAGGATCATGCATGATAATCTTTCTAATATTGGATTTCCCAACTTATTTATGCTGTAAGAAAACAAAATGTTGTGGTCTAGA (double strand) [mCArG_2]
binds more weakly: [1]; [7] | [2]; [7] | [3]; [7]

CTCGAGGATCATGCATGATAATCTTTGACAGTTTTAATTTCCCAACTTATTTATGCTGTAAGAAAACAAAATGTTGTGGTCTAGA (double strand) [mCArG_1+2]
no binding: [1]; [8] | [2]; [8] | [3]; [8] | [4] | [5]

CTCGAGGATCATGCATGATAATCTTTCTAATATTGGATTTCCCAACTTACTATTTTTGGAAGAAAACAAAATGTTGTGGTCTAGA (double strand) [AtMUTE_i1]
binds: [1]; 6 ug/uL BSA | [2]; 6 ug/uL BSA | [3]; 6 ug/uL BSA

CTCGAGGATCATGCATGATAATCTTTGACAGTTTTAATTTCCCAACTTACTATTTTTGGAAGAAAACAAAATGTTGTGGTCTAGA (double strand) [mCArG_1]
binds: [1]; [9] | [2]; [9] | [3]; [9]

CTCGAGGATCATGCATGGTTACCCTTTAATACTGGATATCCCCGACTTACTAATTTCGGAAAAATATGTTATGATCATGTCTAGA (double strand) [CrMUTE_i1]
binds: [1]; [6] | [2]; [6] | [3]; [6]

The exact form of at least one protein or probe is not confirmed. Negatives hold for the conditions tested. At least one verdict rests on a figure or table, not on a statement of the authors. For some assays here: The comparison behind a weaker result is the experiment's own reference, which may not be listed here.
